Data as given in US20030186423A1, “Amidase from variovorax” (Degussa AG, priority 2001, published 2003).
At least one structure is not confirmed: it was looked up by name or label, or the drawing left a doubt. Some results were stated once for a whole list of compounds, not compound by compound.

What was measured:
[1] = tested on: D-amidase; experiment: Kinetic cleavage of racemic amino acid amides: enantioselectivity as a function of the conversion; type: biochemical, Variovorax paradoxus; details: racemic amide; calculated from Table 3
Description: To evaluate the suitability for kinetic cleavage of racemic DL-Tle-NH2, the enantioselectivity was determined as a function of the conversion.
DL-Valin-, DL-leucin- and DL-phenylalaninamide were alos tested in this respect. For this, the enantioselectivity was determined as function of the conversion with partly purified enzyme from Variovorax paradoxus 19-3 after the 1st chromatography step.
The separation and quantitative determination of the enantiomers D- and L-tert-leucine were carried out by a “chiral derivatization” on the basis of o-phthaldialdehyde (OPA)/N-isobutyryl-L-cysteine or N-isobutyryl-D-cysteine (Brückner, H.; Wittner R. and Godel H. (1991), Fully automated high-performance liquid chromatographic separation of DL-amino acids derivatized with o-Phthaldialdehyde together with N-isopropyl-cysteine. Application to food samples. Anal. Biochem. 144, 204-206). The diastereomeric isoindole derivatives formed were separated on an RP-18 (reversed phase) column and detected by fluorescence. A two-buffer system of aqueous acetate buffer and an acetonitrile/water mixture was used as the mobile phase.

[2] = tested on: D-amidase; experiment: Enzyme test for acid amides, activity by determination of ammonium ions with glutamate dehydrogenase; type: biochemical, Variovorax paradoxus; details: substrate 40 mM
Description: The activity was measured by determination of the ammonium ions with glutamate dehydrogenase (Bergmeyer, H. U., and Beutler, H.-O. (1985), Ammonia. In: Methods of Enzymatic Analysis. VCH-Verlag, 3rd edition, vol. 8: 454-461, Weinheim). […] The substrates were employed in the enzyme test at 40 mM, except for succinic acid diamide and adipic acid diamide, each at 10 mM, and benzylamide at 20 mM. Since the activities were determined only at in each case one substrate concentration, relative activities are stated.
In the conversion of tert-leucinamide (gen. acid amides) by the D-amidase, the formation of ammonia or ammonium ions and tert-leucine (gen. acid) in equimolar amounts occurs. […] The change in concentration of the components participating can be measured in an enzyme test, which comprises incubation of the following test batch for 10-60 minutes at 30° C. […]
The enzyme glutamate dehydrogenase (GluDH; E.C.1.4.1.3) converts 2-oxoglutarate into L-glutamate, ammonium ions being consumed and NADH being oxidized to NAD+(Bergmeyer, H.,U. and Beutler, H.-O. (1985), Ammonia. In: Methods of Enzymatic Analysis. VCH-Verlag, 3rd edition, vol. 8: 454-461, Weinheim). […] The change in the concentration of NADH is the measurement parameter and can be determined spectrophotometrically at a wavelength of 340 nm. […]

For `CC(C)C[C@H](N)C(N)=O` (racemic) [DL-Leu-NH2], the “E value (average)” value [1] was “greater than 100”.
For `CC(C)[C@H](N)C(N)=O` (racemic) [DL-Val-NH2, valinamide], the “E value (average)” value [1] was “greater than 100”.
For `C=CC(N)=O` [Acrylamide], the “Activity with respect to Tle-NH2” value ([2]; DL-Tle-NH2 = 1) was 7.7 and the Relative act. ([2]; partly purified D-amidase after the 2nd chromatography step (0.51 U/mg)) was 4.0 U/mg.
